Residue numbers refer to the chain shown, from its start. No constants are given. Whether binding was seen depends on the method and setting. Some binding calls cover weakened binding; strength is not graded here.
B1: AB1 having a murinised VL of SEQ ID NO: 9 and a murinised VH of SEQ ID NO.: 10 (antibody, V domains shown)
VH: QVQLKESGPGLVAPSQSLSITCTVSGIDLSTWRMNWVRQPPGKGLEWIGIIGTGGRTYYANWAKGRFSISKDSTQVFLKMNSLQTEDTATYFCARLGANNNGYPLDLWGAGTTVTVSS
VL: DVVMTQSPASLAVSLGQRATISCQASQSVSSYLAWYQQKPGQPPKLLIYAASYLASGVPSRFKGSGSGTEFTLNIHPVEEEDAATYYCQQGYTRTDIDNTFGGGTKLEIK
B2: humanized AB1 having a VL of SEQ ID No.: 11 and VH of SEQ ID No.: 14 (antibody, V domains shown)
VH: ELQLQESGPGLVKPSETLSLTCTVSGIDLSTWRMNWIRQPPGKGLEWIGIIGTGGRTYYANWAKGRVTISKDTSKNQVSLKLSSVTAADTAVYYCARLGANNQGYPLDLWGQGTLVTVSS
VL: DIQMTQSPSSLSASVGDRVTITCQASQSVSSYLAWYQQKPGKAPKLLIYAASYLASGVPSRFSGSGSGTDFTLTISSLQPEDFATYYCQQGYTRTDIDNTFGGGTKVEIK
B3: humanized AB1 having a VL of SEQ ID No.: 11 and VH of SEQ ID No.: 15 (antibody, V domains shown)
VH: B2 VH with Q103A
VL: B2 VL

Protein sequences, listed by entry. Tags and fused reporters are not part of them. Lines headed by an entry give the natural chain unless they say otherwise; changes in a name come on top. Chains listed by the source or under a name are the forms on record and can include a tag or linker.
Tau in human brain samples without Tau pathology (AT8 negative tissues) (P10636, form named): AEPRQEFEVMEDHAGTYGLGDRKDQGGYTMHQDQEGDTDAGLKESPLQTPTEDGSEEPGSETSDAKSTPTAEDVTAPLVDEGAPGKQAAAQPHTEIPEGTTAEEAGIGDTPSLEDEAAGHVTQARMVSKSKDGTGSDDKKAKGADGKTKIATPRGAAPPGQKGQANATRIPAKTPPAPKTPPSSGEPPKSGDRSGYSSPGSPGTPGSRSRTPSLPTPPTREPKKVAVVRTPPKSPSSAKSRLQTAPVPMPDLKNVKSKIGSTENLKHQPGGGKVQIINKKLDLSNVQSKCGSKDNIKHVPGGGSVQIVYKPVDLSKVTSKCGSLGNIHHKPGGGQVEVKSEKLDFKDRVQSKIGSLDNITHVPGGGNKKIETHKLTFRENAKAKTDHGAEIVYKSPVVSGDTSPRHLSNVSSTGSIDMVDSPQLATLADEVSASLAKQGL

Legend:
[1] = biological target: pathological Tau from samples of human AD (lysate, Western blot) (human) (UniProt P10636); assay: Western blot of human AD lysate
[2] = biological target: pathological Tau from samples of human PSP (lysate, Western blot) (human) (UniProt P10636); assay: Western blot of human PSP lysate
[3] = biological target: pathological Tau from samples of human AD (lysate, Western blot) (human) (UniProt P10636); assay: Western blot of brain lysate (20 ug protein per lane, SDS-PAGE, PVDF), chemiluminescent read-out
[4] = biological target: pathological Tau in cryosections of human brain with positive Tau pathology (AT8 positive samples) (human) (UniProt P10636); assay: immunostaining of human brain cryosections, positive Tau pathology samples
[5] = biological target: Tau in human brain samples without Tau pathology (AT8 negative tissues) (human) (UniProt P10636); assay: immunostaining of human brain cryosections, negative Tau pathology samples

Binder | binding [1] | binding [2] | binding [3] | binding [4] | binding [5]
B1 | binds | binds | binds |  | 
B2 |  |  |  | binds | binds
B3 |  |  |  | binds | binds
